PubChem BioAssay AID1508597 | Cure First – 2020
Shown is a random part of the about 2,100 reagents, under one of the conditions tested. 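Calls flag viability under 80% in either arm, not effects specific to rucaparib; the reference for percent is not stated.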 Unmarked entries are inactive. Some reagents were tested in more than one well and are listed for each. Reagent sequences are not shown. The record does not give: the 100% reference.

Purpose: 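Survival screen with siRNA in ovarian cancer cells derived from patients, with or without rucaparib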 (primary screen)
System: human ovarian carcinoma lines grown from tumours: OCI-P5x (papillary serous) and OCI-C5x (clear cell)
Reagent: siRNA pool against human genes, 1.25 pmol siRNA per well
Timing: 72 h or 96 h, depending on the cell culture
Treatment: rucaparib 20 µM (about IC30) or vehicle, present until read-out
Rucaparib or vehicle: Rucaparib
Cell line: OCI-P5x (serous)
Measured: 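ATP luminescence measured at 72 or 96 h according to the culture, then normalised and expressed as percent viability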
Scale: viability, normalised: higher = more viable cells remaining
Active means: 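Active when normalised viability falls below 80 percent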
Meaning of the calls: active = viability under 80%; inactive = viability 80% or more

gene symbol | technical replicate | viability, normalised (%)
SPHK1 | 1 | 61.8 (active)
SPHK1 | 2 | 75.6 (active)
SPHK1 | 3 | 49.4 (active)
RAD9A | 1 | 92
RAD9A | 2 | 117
RAD9A | 3 | 70.2 (active)
PGK1 | 1 | 67.8 (active)
PGK1 | 2 | 61.4 (active)
PGK1 | 3 | 73.9 (active)
SLX4 | 1 | 70.7 (active)
SLX4 | 2 | 69.6 (active)
SLX4 | 3 | 98.7
PCDHB3 | 1 | 51.1 (active)
PCDHB3 | 2 | 52.1 (active)
PCDHB3 | 3 | 51.3 (active)
PWWP2B | 1 | 50.5 (active)
PWWP2B | 2 | 50.7 (active)
PWWP2B | 3 | 51.3 (active)
ALPK1 | 1 | 73 (active)
ALPK1 | 1 | 89.1
ALPK1 | 2 | 77.3 (active)
ALPK1 | 2 | 108
ALPK1 | 3 | 90.6
ALPK1 | 3 | 78.5 (active)

Not a retest: entries from further up.
gene symbol | technical replicate | viability, normalised (%)
PWWP2B | 1 | 50.5 (active)
PWWP2B | 2 | 50.7 (active)
PWWP2B | 3 | 51.3 (active)
ALPK1 | 1 | 73 (active)

The listing continues:
gene symbol | technical replicate | viability, normalised (%)
NME4 | 1 | 55.4 (active)
NME4 | 1 | 69.6 (active)
NME4 | 1 | 92.3
NME4 | 2 | 67.9 (active)
NME4 | 2 | 54.6 (active)
NME4 | 2 | 81.6
NME4 | 3 | 103
NME4 | 3 | 51.4 (active)
NME4 | 3 | 68.1 (active)
ARID1A | 1 | 99.8
ARID1A | 2 | 106
ARID1A | 3 | 91.2
URI1 | 1 | 88.3
URI1 | 2 | 79.6 (active)
URI1 | 3 | 90.4
HNRNPAB | 1 | 68.4 (active)
HNRNPAB | 2 | 81.5
HNRNPAB | 3 | 68.5 (active)
PMAIP1 | 1 | 32.5 (active)
PMAIP1 | 2 | 36.3 (active)
PMAIP1 | 3 | 35.5 (active)
MPP1 | 1 | 99.9
MPP1 | 2 | 104
MPP1 | 3 | 88
RMI1 | 1 | 73.2 (active)
RMI1 | 2 | 118
RMI1 | 3 | 89.3
CDC5L | 1 | 87.5
CDC5L | 2 | 91.7
CDC5L | 3 | 66.2 (active)
FOXP1 | 1 | 38.8 (active)
FOXP1 | 2 | 54.1 (active)
FOXP1 | 3 | 39.8 (active)
